Measurements taken from patent US9040725B2, “Benzocycloheptane and benzoxepine derivatives” (Janssen Pharmaceutica NV, priority 2008, dated 2015).
The structures given here were assigned with low confidence; some may be wrong.

Protein sequences, listed by entry. Tags and fused reporters are not part of them.
UniProt Q92847, whole entry: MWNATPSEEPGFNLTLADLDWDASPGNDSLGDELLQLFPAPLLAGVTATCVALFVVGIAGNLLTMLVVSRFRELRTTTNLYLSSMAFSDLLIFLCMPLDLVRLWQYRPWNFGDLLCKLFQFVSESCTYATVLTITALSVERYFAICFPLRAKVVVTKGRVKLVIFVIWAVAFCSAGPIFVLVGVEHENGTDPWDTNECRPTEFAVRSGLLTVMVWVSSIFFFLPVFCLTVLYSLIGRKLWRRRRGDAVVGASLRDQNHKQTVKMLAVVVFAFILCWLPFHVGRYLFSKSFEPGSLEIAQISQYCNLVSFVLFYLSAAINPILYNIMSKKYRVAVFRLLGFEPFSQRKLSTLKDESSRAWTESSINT

Assays:
GHS1A-receptor = GHS1A-receptor (Homo sapiens, UniProt Q92847); test: Ghrelin-agonism in HEK293 cells (intracellular calcium, FLIPR); type: cell-based; settings: HEK293 cells permanently transfected with GHS1A-receptor, calcium fluorescence (fluo-4 or Kit-3), EC50 in M, tested form: oxalate
NMRI-mice = test: Acceleration of gastric emptying and small intestinal propulsion in NMRI-mice; type: in vivo; settings: lowest active dose, subcutaneous, 30 min before phenol red test meal, tested form: oxalate
Experimental: Male NMRI-mice weighing around 25 gram were fasted for 20 h and had free access to drinking water. Test compounds were administered to the animals by subcutaneous route 30 min before they were given a test meal by oral gavage. The test meal consisted of 0.3 ml of a chocolate nutridrink solution (1.0 kcal/ml) containing phenol red marker (5 mg/ml). Fifteen min after administration of the meal, the mice were sacrificed by CO2 gas inhalation. The phenol red content remaining in the stomach (extracted from the stomach with NaOH) was determined at 557 nm in a spectrophotometer and expressed as extinction units. Small intestinal propulsion was determined as the distance traveled by the phenol red marker through the intestine and expressed as a percentage of total small intestinal length (from the pylorus to the ileo-cecal junction).
The lowest dose that was active for each parameter was noted as the lowest active dose (LAD). Table 12 discloses LAD values.

`CN(C)CCC[C@@]1(O)c2ccccc2CCC[C@@H]1c1cccc(Cl)c1` (relative stereo) was tested, and the pEC50 (GHS1A-receptor) was 8.0, the “LAD (mg/kg) Small intestinal propulsion” value (NMRI-mice; active when >60% of animals had phenol red front beyond 85% of small intestinal length) was greater than 10 mg/kg and the “LAD (mg/kg) Gastric emptying” value (NMRI-mice; stomach content 15 min after meal, active when >60% of animals below 0.9 extinction units) was greater than 10 mg/kg.
